Binding data for three substances are collected here from article doi:10.1101/2024.06.27.600789.

The chains behind the UniProt entries cited, without tags or fusion partners. Where a name states a change or a piece, a line headed by the entry shows the natural chain unless it says otherwise. Residues count along the entry.
UniProt Q9UHB6, residues 161-759: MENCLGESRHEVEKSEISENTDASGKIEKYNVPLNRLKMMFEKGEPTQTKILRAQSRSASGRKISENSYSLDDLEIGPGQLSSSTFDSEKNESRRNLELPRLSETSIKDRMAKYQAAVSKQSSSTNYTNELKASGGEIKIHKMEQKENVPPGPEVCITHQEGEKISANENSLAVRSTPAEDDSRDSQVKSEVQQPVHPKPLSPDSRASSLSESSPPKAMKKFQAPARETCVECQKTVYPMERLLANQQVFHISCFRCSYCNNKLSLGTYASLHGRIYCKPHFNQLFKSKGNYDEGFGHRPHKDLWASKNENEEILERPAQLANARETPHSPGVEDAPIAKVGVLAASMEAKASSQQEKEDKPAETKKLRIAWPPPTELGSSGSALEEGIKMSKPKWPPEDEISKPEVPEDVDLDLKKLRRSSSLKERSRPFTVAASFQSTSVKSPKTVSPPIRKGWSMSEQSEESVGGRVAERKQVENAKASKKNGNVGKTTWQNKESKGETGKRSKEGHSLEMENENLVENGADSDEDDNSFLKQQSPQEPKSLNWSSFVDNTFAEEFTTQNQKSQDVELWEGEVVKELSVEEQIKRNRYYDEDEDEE
UniProt Q9UL25: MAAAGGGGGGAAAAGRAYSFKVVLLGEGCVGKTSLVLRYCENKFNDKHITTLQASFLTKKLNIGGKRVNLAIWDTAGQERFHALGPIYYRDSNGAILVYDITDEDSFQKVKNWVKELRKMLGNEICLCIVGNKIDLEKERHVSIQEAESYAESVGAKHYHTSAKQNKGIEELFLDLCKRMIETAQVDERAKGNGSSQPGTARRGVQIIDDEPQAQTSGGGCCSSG

Assay [1] has as its target StrepII-EPLINα WT (human) (UniProt Q9UHB6). Description: pull-down.
Assay [2] concerns the target Rab21 fused to the V1 half of Venus (pDEST-Rab21-V1) (UniProt Q9UL25). In words: split reporter.
In assay [3] the target is GppNHp-loaded recombinant Rab21, fluorescently labelled (UniProt Q9UL25). Description: MST.

These are yes or no findings as the source states them, for the method shown. For part of these data: In cells and extracts the contact can be indirect. Some binding calls cover weakened binding; strength is not graded here.

Take “ARPC1B, a subunit of the ARP2/3 complex (from UniProt O15143 1-372)”: the binding entry in assay [1] is reported as “binds”.

For “EPLINα fused to the V2 half of Venus (pDEST-V2-EPLINα) (from UniProt Q9UHB6-2 1-599)”, in assay [2], the binding entry is “binds”.

In the case of “GST-tagged EPLINα (from UniProt Q9UHB6-2 1-599)”, the binding result in assay [3] is given as “binds”.
